Positions count from the first letter of the chain named. No constants are given. Whether binding was seen depends on the method and setting. Binding seen in cells or lysates may run through a third protein. Some entries that bind do so weakly or less than the wild type.
How the values were obtained:
Experiment in all cases: co-IP; Stu2-HA precipitated with anti-HA magnetic beads from 67 mg cryo-milled yeast extract in PEM buffer (80 mM PIPES, 1 mM EGTA, 1 mM MgCl2, pH 6.8); precipitate blotted with anti α-tubulin (anti-Tub1) as surrogate for αβ-tubulin
[1] = biological target: T1, Stu2-K252,469,870Q-3xHA (S. cerevisiae) (UniProt P46675)
T1 sequence: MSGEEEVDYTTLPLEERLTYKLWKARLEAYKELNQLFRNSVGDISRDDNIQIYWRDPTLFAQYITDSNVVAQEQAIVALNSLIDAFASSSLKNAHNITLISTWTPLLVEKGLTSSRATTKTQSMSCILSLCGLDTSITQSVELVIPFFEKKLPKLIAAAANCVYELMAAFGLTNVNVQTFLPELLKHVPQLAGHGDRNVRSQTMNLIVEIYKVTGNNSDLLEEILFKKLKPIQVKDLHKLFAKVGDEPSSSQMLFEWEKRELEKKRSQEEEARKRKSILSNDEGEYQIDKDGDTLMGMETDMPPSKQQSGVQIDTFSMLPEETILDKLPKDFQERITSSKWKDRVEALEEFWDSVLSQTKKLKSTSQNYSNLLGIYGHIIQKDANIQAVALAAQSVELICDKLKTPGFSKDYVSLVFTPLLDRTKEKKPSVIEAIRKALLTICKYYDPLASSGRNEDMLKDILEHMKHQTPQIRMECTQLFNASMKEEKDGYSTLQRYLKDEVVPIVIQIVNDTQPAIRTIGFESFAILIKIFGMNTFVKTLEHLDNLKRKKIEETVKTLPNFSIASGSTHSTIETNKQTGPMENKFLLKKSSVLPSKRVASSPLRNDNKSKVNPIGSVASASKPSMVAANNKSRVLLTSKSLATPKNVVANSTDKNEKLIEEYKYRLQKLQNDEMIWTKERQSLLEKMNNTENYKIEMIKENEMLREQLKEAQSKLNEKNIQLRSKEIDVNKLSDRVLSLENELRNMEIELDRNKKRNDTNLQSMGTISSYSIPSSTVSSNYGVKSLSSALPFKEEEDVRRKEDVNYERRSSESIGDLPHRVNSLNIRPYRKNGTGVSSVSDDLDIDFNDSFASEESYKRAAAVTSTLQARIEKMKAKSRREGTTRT

Sequences of proteins named here, by UniProt entry; tags and fusion partners are left off. A change or cut given only in a name is not applied to a line headed by its entry.
UniProt P09733: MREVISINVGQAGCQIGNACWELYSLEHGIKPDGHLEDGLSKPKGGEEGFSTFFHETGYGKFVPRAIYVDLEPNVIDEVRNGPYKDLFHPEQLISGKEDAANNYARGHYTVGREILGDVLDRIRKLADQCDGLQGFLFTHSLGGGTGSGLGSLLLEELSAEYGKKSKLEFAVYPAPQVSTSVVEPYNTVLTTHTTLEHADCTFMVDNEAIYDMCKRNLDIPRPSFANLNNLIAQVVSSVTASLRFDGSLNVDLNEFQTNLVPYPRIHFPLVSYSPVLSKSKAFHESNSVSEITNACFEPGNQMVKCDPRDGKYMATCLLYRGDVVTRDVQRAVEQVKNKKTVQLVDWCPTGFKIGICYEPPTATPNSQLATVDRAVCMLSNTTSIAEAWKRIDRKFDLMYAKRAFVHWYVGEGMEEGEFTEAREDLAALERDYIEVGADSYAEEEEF

[2] = biological target: T2, Stu2-K252,469,870R-3xHA (S. cerevisiae) (UniProt P46675)
T2 sequence: T1 sequence with Q252R, Q469R, Q870R

[3] = biological target: T3, Stu2-K870Q-3xHA (S. cerevisiae) (UniProt P46675)
T3 sequence: T1 sequence with Q252K, Q469K

- binding [1]: binds
- binding [2]: binds
- binding [3]: binds
Substance: αβ-tubulin heterodimer (from UniProt P09733 1-447; P02557 1-457) (complex)
